In article PMC7699706, “Responses of DNA Mismatch Repair Proteins to a Stable G-Quadruplex Embedded into a DNA Duplex Structure” (International Journal of Molecular Sciences, 2020) one finds Kd data, which are given here for three sequences.

The chains behind the UniProt entries cited, without tags or fusion partners. Where a name states a change or a piece, a line headed by the entry shows the natural chain unless it says otherwise.
UniProt P23909: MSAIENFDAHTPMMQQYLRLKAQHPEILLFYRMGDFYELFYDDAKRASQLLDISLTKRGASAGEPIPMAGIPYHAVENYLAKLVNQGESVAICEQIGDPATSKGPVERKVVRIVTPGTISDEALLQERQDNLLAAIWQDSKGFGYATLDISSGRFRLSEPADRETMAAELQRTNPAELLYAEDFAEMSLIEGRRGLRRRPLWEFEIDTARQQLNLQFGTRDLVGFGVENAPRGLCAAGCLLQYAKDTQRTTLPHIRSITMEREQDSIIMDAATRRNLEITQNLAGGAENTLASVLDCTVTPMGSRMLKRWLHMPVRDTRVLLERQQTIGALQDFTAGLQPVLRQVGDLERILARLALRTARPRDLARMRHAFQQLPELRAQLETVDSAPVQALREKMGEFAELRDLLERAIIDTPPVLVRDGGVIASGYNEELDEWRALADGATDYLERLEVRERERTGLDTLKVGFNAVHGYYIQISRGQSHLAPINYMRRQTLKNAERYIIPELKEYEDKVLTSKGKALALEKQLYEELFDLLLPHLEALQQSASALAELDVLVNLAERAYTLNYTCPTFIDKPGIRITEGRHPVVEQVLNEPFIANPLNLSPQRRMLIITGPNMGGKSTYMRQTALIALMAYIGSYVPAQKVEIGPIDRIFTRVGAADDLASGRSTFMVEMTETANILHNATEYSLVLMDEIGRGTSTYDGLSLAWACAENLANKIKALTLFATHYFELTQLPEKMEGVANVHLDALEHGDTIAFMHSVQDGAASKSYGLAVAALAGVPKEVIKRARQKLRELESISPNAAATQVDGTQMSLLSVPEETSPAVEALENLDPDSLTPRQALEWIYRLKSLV

For at least one entry, the source does not settle the construct or the ends of the probe. For part of these data: Tags and fusion partners may be left off the protein sequences shown.

Data set [1] concerns the target T1, rsMutS (Rhodobacter sphaeroides strain 2.4.1) (UniProt Q3IYI5).
T1 sequence (looked up, limits assumed): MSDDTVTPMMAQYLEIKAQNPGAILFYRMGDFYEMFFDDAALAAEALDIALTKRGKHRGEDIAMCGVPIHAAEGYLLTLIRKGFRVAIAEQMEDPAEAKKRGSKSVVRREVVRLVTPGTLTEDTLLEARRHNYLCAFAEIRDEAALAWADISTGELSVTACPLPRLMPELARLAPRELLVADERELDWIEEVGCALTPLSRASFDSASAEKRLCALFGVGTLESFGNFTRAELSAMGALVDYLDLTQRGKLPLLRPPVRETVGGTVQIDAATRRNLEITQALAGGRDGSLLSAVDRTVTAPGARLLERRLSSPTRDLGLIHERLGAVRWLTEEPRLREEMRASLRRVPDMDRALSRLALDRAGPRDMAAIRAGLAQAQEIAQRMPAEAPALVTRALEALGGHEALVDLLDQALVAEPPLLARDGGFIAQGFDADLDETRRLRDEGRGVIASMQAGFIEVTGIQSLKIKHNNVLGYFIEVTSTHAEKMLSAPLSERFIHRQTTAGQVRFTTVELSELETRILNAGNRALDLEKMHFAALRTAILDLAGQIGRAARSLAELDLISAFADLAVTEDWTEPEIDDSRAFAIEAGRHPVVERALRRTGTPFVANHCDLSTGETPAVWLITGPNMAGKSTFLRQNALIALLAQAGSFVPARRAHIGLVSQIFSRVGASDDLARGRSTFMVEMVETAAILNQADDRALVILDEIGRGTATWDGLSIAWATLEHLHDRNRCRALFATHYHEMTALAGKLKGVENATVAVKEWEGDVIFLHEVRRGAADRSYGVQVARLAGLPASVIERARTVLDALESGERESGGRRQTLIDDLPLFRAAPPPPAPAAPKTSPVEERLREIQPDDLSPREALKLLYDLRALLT
As to the kind of experiment: EMSA. The note with it: 1 mM ATPgS, 5 mM MgCl2, N6-methyl-dA at position 16 of strand 1 (Gm6ATC), MutS EMSA: 5 nM DNA, 20 mM HEPES-KOH pH 7.9, 5 mM MgCl2, 120 mM KCl, 0.5 mg/mL BSA, 1 mM nucleotide, 37 C 15 min, recombinant protein, protein details: N-terminal His6 (pET15b).

Data set [2] has as its target ecMutS (Escherichia coli) (UniProt P23909). Kind of data set: EMSA. Particulars: 1 mM ATPgS, 5 mM MgCl2, N6-methyl-dA at position 16 of strand 1 (Gm6ATC), MutS EMSA: 5 nM DNA, 20 mM HEPES-KOH pH 7.9, 5 mM MgCl2, 120 mM KCl, 0.5 mg/mL BSA, 1 mM nucleotide, 37 C 15 min, recombinant protein.
Where [3] appears, read: label: 3'-TAMRA on strand 2 (76T).
Where [4] appears, read: label: 3'-TAMRA on strand 2 (95(GT)8).

Regarding “TCCTTTCGCGCTTGGATCCTATGAGCGTTACTCGAGCATATGGCTCAGCTGCCAAGCACCAGTGTCAGCGTCCTAT (double strand) [76/76-A/T]”, the Kd is 470 nM in data set [1] (setting [3]) and 150 nM in data set [2] (setting [3]).
For the sequence “TCCTTTCGCGCTTGGATCCTATGAGCGTTACTCGAGCATATGGCTCAGCTGCCAAGCACCAGTGTCAGCGTCCTAT / ATAGGACGCTGACACTGGTGCTTGGCAGCTGAGCCATATTTGTGTGTGTGTGTGTGTTGCTCGAGTAACGCTCATAGGATCCAAGCGCGAAAGGA [76/95(GT)8-A/T]”, the Kd in data set [1] (setting [4]) was determined as 190 nM; in data set [2] (setting [4]) it was 80 nM.
Take “TCCTTTCGCGCTTGGATCCTATGAGCGTTACTCGAGCATATGGCTCAGCTGCCAGGCACCAGTGTCAGCGTCCTAT / ATAGGACGCTGACACTGGTGCTTGGCAGCTGAGCCATATGCTCGAGTAACGCTCATAGGATCCAAGCGCGAAAGGA [76/76-G/T]”: the Kd amounted to 360 nM in data set [1] (setting [3]) and 70 nM in data set [2] (setting [3]).
